Laboratory results reported in publication PMC6586911.
Results are given in words; binding and its absence hold for the method and conditions named. For part of these data: In cells and extracts the contact can be indirect. Some entries that bind do so weakly or less than the wild type.

The chains behind the UniProt entries cited, without tags or fusion partners.
UniProt Q16763: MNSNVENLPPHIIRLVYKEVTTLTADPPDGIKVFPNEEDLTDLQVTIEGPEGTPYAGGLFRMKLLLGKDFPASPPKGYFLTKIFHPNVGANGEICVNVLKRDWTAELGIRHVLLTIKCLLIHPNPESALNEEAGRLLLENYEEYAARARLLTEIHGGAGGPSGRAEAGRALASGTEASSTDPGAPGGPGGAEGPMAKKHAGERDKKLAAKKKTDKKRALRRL
UniProt P40337: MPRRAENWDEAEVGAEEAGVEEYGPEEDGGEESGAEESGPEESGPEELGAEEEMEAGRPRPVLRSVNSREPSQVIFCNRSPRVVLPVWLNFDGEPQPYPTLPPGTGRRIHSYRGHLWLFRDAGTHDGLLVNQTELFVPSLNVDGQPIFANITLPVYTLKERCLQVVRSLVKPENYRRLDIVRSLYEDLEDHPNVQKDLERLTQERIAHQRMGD

Legend:
[1] = molecular target: UCP (full-length UCP of the pull-downs of Supplementary Fig. 3; construct not shown) (UniProt Q16763); assay: pull-down; GST pull-down with deletion mutants of HBx and UCP (Supplementary Fig. 3b–e); legend and details not shown
[2] = molecular target: GST-UCP (expressed in 293T cells) (UniProt Q16763); assay: pull-down + co-IP; 293T cells transfected with GST-UCP, HA-VHL, F-HBx and/or GST expression vector (10 μg each), 24 h; GST pull-down and IP from lysates
[3] = molecular target: GST-UCP protein (expressed in bacteria) (UniProt Q16763); assay: pull-down; purified GST-UCP (1 μg), His-pVHL (1 μg), F-HBx (0.5, 2 μg) and/or GST (1 μg) proteins mixed, 4 °C for 1 h; pull-down; both purified

Question: Which binding [1] does the source give for “pVHL (of the pull-downs of Supplementary Fig. 3; construct not shown) (from UniProt P40337 1-213)” here?
Answer: Its binding is “binds”.

Question: Which binding [2] does the source give for “HA-VHL (expressed in 293T cells) (from UniProt P40337 1-213)” here?
Answer: Its binding is “binds”.

Question: “His-pVHL protein (from UniProt P40337 1-213)” was tested. Which binding [3] did it give?
Answer: The binding was “binds”.
